Results on one molecule are retold here after patent US20150079113A1 (MIT, published 2015).

Chains of the proteins cited; added tags and fusions are not shown. Residues count along the entry.
UniProt P11688, 45-1053: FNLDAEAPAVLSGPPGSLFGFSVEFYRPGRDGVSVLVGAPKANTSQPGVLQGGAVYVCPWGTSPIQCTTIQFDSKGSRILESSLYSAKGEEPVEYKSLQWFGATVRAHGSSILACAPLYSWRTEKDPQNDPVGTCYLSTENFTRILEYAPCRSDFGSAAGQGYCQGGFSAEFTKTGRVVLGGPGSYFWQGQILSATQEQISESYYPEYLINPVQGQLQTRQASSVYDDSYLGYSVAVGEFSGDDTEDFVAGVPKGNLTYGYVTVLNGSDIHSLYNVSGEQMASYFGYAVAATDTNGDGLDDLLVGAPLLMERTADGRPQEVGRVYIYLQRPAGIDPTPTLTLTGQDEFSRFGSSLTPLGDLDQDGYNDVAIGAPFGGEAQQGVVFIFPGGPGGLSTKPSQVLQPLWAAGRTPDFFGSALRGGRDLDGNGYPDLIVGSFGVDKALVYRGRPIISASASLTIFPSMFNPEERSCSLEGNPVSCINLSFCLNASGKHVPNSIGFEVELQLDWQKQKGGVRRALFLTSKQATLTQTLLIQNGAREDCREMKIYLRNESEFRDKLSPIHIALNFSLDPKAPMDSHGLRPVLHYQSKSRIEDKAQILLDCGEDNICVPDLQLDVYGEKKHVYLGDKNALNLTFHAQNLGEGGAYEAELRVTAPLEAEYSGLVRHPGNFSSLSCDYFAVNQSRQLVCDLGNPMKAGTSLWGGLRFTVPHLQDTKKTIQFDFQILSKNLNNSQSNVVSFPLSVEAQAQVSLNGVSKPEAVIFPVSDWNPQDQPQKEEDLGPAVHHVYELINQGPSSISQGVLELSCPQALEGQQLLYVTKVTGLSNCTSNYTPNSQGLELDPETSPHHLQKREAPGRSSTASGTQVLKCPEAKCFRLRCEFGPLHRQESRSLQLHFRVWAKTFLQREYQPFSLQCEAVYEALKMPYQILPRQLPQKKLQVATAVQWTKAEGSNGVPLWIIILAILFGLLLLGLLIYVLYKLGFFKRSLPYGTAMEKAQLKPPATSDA

The target in this assay is T1, α5 integrin (endogenous) (mouse, UniProt P11688 45-1053).
T1 construct: whole, on cells; Present in cells as the α5β1 heterodimer; detected by immunofluorescence or immunoprecipitated from lysates; also called endogenous α5; alpha5 integrin
Nature of the assay: α5 immunoprecipitation from NIH3T3 cell lysates, western blot.

B1: Paxillin (endogenous) (other, UniProt Q8VI36 1-591, looked up)
chain: MDDLDALLADLESTTSHISKRPVFLSEEPPYSYPTGNHTYQEIAVPPPVPPPPSSEALNGTVLDPLDQWQPSGSRYAHQQPPSPLPVYSSSAKNSSASNTQDGVGSLCSRAGEEEHVYSFPNKQKSAEPSPTVMSSSLGSNLSELDRLLLELNAVQHSPPGFPADEAESSPPLPGALSPLYGIPENNTPLGGKAGPLVKEKPKRNGGRGLEDVRPSVESLLDELESSVPSPVPAITVNQGEMSSPQRVTSSQQQTRISASSATRELDELMASLSDFKMQGLEQRVDGERPWAAGWPPSSRQSSPEGQDEGGFMAQGKTGSSSPPGGLSKPGSQLDSMLGSLQSDLNKLGVATVAKGVCGACKKPIAGQVVTAMGKTWHPEHFVCTHCQEEIGSRNFFERDGQPYCEKDYHSLFSPRCYYCNGPILDKVVTALDRTWHPEHFFCAQCGAFFGPEGFHEKDGKAYCRKDYFDMFAPKCGGCARAILENYISALNTLWHPECFVCRECFTPFVNGSFFEHDGQPYCEVHYHERRGSLCSGCQKPITGRCITAMAKKFHPEHFVCAFCLKQLNKGTFKEQNDKPYCQSCFVKLFC
notes: whole, on cells
As for B1, the binding result is recorded as “no binding”.
